# Data reported in the supplement of paper PMC12823440, “Inhibitors supercharge kinase turnover through native proteolytic circuits” (Nature, 2025).
# Protein sequences, listed by entry. Tags and fused reporters are not part of them. Lines headed by an entry give the natural chain unless they say otherwise; changes in a name come on top.
# UniProt P51813: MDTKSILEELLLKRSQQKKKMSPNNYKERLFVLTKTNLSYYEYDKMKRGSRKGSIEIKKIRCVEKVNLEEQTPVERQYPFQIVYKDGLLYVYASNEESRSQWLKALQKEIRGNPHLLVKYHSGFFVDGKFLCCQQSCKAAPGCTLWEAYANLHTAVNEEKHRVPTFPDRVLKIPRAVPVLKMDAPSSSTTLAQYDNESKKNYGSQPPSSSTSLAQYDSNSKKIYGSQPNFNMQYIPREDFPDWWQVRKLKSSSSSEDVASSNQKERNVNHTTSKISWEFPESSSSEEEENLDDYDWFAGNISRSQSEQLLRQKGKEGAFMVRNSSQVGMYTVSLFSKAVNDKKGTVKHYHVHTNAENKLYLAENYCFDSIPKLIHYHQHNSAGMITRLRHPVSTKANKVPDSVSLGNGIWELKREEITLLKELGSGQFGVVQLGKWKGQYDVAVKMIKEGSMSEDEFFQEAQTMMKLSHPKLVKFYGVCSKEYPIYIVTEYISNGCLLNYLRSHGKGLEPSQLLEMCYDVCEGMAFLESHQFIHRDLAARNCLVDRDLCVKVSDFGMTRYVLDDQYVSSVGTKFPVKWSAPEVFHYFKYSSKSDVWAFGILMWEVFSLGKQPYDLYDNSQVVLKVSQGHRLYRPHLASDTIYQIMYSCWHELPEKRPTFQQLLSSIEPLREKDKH
# UniProt P07333, whole entry: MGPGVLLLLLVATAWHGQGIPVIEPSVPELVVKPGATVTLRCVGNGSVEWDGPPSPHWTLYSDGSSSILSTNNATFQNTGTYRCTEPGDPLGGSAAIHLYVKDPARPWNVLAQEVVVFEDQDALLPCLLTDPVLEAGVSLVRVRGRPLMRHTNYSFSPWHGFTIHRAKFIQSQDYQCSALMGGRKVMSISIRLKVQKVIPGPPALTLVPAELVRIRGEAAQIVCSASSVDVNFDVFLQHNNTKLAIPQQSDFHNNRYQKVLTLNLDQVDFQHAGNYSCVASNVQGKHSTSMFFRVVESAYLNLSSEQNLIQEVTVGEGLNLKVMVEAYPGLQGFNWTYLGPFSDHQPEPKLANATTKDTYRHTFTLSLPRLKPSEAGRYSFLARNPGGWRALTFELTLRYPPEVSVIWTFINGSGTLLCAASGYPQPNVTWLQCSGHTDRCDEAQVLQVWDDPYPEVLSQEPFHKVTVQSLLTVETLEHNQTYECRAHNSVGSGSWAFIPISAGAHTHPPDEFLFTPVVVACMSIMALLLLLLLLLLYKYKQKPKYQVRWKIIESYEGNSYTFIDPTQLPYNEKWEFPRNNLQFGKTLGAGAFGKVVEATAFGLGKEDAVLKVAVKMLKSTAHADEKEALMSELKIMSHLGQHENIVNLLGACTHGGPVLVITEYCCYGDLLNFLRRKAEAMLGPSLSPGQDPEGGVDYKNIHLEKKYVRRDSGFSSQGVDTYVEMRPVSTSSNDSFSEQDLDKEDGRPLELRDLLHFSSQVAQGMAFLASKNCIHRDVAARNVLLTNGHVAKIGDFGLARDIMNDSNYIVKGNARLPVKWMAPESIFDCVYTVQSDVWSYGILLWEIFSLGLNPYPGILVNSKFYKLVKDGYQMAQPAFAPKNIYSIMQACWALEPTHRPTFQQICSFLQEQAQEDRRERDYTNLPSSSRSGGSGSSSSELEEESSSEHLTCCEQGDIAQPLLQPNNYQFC
# UniProt O14965: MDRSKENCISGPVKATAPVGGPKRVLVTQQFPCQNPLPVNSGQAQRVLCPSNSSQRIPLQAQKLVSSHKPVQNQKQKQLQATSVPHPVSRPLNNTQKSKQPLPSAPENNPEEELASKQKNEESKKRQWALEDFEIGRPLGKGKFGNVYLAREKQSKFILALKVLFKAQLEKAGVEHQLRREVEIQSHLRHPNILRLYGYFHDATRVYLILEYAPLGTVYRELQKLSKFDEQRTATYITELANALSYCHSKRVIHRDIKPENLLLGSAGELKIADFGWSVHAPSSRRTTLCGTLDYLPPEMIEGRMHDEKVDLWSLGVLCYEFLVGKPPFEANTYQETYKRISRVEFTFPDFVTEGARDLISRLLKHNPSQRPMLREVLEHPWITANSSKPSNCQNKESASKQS
# UniProt P29317, whole entry: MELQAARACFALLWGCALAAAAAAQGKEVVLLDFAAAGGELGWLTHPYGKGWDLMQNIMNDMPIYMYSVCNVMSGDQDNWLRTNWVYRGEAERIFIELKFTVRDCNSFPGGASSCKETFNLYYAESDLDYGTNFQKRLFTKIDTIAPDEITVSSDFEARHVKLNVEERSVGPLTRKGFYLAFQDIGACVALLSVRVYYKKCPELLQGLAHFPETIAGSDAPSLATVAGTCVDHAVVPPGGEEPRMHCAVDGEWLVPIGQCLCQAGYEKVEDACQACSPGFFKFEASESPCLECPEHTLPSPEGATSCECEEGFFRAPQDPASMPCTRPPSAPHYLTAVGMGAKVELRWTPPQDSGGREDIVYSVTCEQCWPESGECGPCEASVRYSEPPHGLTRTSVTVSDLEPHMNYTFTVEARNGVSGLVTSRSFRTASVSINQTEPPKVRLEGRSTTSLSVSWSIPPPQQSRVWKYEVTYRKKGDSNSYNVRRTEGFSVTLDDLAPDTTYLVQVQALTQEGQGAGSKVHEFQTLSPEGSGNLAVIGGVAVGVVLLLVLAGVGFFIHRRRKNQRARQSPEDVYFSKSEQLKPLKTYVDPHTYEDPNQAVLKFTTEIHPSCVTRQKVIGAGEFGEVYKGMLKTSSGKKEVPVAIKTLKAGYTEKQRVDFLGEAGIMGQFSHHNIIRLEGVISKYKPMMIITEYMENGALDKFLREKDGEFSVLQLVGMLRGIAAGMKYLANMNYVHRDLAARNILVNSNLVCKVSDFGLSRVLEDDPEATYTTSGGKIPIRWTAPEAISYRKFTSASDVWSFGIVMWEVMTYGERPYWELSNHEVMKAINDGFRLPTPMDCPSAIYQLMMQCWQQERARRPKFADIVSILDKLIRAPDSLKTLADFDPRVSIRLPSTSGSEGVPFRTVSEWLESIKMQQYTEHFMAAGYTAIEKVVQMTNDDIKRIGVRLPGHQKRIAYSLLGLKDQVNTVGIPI
# UniProt P15056, whole entry, looked up: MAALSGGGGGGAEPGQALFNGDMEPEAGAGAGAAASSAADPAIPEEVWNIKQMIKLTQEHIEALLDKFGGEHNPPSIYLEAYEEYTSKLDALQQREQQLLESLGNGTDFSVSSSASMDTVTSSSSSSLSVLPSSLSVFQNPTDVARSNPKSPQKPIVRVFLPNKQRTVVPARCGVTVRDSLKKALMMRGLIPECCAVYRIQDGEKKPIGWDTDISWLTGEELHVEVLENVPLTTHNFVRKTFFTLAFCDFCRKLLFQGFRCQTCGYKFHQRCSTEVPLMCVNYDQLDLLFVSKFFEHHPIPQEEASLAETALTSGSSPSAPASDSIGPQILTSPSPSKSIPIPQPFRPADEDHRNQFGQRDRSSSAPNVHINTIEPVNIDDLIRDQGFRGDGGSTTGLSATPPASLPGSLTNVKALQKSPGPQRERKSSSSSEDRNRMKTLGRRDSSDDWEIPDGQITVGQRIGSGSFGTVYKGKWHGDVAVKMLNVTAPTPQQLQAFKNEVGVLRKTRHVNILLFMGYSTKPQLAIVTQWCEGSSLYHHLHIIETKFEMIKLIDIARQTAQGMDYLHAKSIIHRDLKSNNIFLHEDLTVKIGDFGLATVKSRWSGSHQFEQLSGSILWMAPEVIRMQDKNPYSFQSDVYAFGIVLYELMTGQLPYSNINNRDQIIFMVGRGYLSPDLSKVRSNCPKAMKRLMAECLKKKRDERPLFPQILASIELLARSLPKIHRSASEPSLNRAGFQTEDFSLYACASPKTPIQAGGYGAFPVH
# UniProt Q08345: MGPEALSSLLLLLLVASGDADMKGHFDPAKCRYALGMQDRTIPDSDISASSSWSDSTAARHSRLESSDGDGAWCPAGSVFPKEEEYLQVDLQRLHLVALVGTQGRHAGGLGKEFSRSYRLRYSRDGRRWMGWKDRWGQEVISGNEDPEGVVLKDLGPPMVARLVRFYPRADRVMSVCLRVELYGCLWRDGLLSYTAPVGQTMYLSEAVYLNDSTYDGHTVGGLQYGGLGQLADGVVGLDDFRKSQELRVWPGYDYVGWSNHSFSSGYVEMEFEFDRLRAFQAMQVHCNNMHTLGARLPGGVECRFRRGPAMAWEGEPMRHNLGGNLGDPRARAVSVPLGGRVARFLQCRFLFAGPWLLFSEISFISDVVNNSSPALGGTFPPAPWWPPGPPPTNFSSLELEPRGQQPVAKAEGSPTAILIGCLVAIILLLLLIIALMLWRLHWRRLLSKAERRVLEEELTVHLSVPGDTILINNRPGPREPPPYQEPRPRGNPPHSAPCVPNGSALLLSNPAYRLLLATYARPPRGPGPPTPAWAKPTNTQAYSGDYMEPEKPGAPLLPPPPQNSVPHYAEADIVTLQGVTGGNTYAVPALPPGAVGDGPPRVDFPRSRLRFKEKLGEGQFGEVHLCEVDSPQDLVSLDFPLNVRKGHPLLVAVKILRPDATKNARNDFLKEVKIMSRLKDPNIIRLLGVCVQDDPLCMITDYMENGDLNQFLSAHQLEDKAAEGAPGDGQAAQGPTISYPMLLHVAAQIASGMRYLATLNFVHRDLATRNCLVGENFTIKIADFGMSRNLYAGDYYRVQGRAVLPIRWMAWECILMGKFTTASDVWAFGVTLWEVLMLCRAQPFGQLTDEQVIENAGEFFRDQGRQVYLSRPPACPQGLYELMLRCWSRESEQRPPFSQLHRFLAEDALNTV
# UniProt Q16288, whole entry, looked up: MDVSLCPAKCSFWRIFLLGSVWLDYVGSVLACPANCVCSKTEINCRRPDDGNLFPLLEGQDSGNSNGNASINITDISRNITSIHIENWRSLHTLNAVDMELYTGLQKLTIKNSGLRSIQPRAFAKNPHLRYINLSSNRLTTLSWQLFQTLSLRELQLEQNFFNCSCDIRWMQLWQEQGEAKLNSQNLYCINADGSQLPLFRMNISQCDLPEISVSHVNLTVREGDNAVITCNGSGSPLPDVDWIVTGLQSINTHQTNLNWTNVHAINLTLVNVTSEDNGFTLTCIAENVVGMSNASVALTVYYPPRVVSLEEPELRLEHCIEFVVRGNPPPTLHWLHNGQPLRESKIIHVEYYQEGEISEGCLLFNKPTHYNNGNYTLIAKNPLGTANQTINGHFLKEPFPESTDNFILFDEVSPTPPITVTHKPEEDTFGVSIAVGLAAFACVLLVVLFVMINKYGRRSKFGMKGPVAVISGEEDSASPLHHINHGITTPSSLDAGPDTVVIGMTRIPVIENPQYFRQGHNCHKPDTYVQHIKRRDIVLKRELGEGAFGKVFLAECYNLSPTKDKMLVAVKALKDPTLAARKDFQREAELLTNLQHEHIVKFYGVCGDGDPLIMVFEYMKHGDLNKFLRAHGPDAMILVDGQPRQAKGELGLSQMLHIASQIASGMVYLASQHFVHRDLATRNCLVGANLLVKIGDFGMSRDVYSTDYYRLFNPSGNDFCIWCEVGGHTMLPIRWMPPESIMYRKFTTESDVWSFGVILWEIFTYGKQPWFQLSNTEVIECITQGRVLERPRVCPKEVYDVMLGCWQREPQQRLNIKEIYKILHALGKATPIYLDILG
# UniProt Q15418, whole entry: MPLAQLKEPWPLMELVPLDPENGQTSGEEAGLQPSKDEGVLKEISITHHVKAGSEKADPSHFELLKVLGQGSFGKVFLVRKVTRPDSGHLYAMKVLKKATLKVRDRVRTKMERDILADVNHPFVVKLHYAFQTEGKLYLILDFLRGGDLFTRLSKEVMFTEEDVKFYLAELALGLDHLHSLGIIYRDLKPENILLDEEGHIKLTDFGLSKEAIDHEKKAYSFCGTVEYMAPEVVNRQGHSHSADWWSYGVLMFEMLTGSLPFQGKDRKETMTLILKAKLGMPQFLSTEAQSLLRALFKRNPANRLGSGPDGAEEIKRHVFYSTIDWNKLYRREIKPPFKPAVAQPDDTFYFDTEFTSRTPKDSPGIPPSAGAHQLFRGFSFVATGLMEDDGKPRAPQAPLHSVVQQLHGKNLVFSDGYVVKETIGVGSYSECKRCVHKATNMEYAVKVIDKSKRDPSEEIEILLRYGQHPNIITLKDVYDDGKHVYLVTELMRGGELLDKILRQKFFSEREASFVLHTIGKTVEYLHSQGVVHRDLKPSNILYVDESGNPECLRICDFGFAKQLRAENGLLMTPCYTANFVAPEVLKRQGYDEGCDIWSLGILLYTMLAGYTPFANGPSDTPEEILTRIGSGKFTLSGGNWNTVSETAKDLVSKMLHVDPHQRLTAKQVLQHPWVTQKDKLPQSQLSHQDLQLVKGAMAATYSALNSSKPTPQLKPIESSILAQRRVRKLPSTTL
# The other results are listed elsewhere or left out. The calls rarely recur for the same compound in another form.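 Kinases were expressed as nanoluciferase fusions in K562 cells and luminescence was read every 4 h between 2 and 18 h as percent of control, DMSO set to 100% and a positive control to 0%. A time point counts as decreased when the signal drops significantly (2 sigma). The hit call is the authors' own, does not follow from the count of time points alone, and its rule is not shown.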
# Compound: O=C1NCCc2[nH]c(-c3ccncc3)cc21
# Test: number of time points (of 5) at which kinase-Nluc abundance scored as decreased, DMSO-normalised (count); higher = more persistent destabilization
# Details: 2.5 µM; K562; 2-18 h
row,Target,number of time points
1,NTRK2 (UniProt Q16620),0
2,SRC (UniProt P12931),0
3,BMX (UniProt P51813),0
4,MAPK1 (UniProt P28482),0
5,CSF1R (UniProt P07333),0
6,PTK2 (UniProt Q05397),0
7,AURKA (UniProt O14965),0
8,EPHA2 (UniProt P29317),0
9,CDK2 (UniProt P24941),0
10,BRAF (UniProt P15056),0
11,DDR1 (UniProt Q08345),0
12,NTRK3 (UniProt Q16288),0
13,ABL1 (UniProt P00519),0
14,HER2 (UniProt P04626),0
15,TYK2 (UniProt P29597),0
16,FGFR1 (UniProt P11362),0
17,RPS6KA1 (UniProt Q15418),0

# Compound: O=S(=O)(c1cccc2c(O)nccc12)N1CCCNCC1 [Hydroxyfasudil (hydrochloride)]
# Test: as above
# Details: 10 µM; K562; 2-18 h
row,Target,number of time points
1,SRC (UniProt P12931),0
2,BMX (UniProt P51813),0
3,BTK (UniProt Q06187),0
4,CSF1R (UniProt P07333),0
5,SYK (UniProt P43405),0
6,AURKA (UniProt O14965),0
7,EPHA2 (UniProt P29317),0
8,BLK (UniProt P51451),0
9,CDK2 (UniProt P24941),0
10,DDR1 (UniProt Q08345),0
11,NTRK3 (UniProt Q16288),0
12,HER2 (UniProt P04626),0
13,CSNK1A1 (UniProt P48729),0
14,TYK2 (UniProt P29597),0
15,PDGFRB (UniProt P09619),0
16,RPS6KA1 (UniProt Q15418),0

# Compound: O=S(=O)(c1cccc2c(O)nccc12)N1CCCNCC1 [Hydroxyfasudil]
# Test: as above
# Details: 10 µM; K562; 2-18 h
row,Target,number of time points
1,NTRK2 (UniProt Q16620),0
2,SRC (UniProt P12931),0
3,BMX (UniProt P51813),0
4,BTK (UniProt Q06187),0
5,CSF1R (UniProt P07333),0
6,SYK (UniProt P43405),0
7,AURKA (UniProt O14965),0
8,EPHA2 (UniProt P29317),0
9,BLK (UniProt P51451),0
10,CDK2 (UniProt P24941),0
11,DDR1 (UniProt Q08345),0
12,NTRK3 (UniProt Q16288),0
13,HER2 (UniProt P04626),0
14,CSNK1A1 (UniProt P48729),0
15,TYK2 (UniProt P29597),0
16,PDGFRB (UniProt P09619),0
17,RPS6KA1 (UniProt Q15418),0
